This passage reports binding results from patent publication US6645728.

By UniProt entry, the sequences of proteins in these tests, tags left out. Where a name states a change or a piece, a line headed by the entry shows the natural chain unless it says otherwise.
UniProt Q99558: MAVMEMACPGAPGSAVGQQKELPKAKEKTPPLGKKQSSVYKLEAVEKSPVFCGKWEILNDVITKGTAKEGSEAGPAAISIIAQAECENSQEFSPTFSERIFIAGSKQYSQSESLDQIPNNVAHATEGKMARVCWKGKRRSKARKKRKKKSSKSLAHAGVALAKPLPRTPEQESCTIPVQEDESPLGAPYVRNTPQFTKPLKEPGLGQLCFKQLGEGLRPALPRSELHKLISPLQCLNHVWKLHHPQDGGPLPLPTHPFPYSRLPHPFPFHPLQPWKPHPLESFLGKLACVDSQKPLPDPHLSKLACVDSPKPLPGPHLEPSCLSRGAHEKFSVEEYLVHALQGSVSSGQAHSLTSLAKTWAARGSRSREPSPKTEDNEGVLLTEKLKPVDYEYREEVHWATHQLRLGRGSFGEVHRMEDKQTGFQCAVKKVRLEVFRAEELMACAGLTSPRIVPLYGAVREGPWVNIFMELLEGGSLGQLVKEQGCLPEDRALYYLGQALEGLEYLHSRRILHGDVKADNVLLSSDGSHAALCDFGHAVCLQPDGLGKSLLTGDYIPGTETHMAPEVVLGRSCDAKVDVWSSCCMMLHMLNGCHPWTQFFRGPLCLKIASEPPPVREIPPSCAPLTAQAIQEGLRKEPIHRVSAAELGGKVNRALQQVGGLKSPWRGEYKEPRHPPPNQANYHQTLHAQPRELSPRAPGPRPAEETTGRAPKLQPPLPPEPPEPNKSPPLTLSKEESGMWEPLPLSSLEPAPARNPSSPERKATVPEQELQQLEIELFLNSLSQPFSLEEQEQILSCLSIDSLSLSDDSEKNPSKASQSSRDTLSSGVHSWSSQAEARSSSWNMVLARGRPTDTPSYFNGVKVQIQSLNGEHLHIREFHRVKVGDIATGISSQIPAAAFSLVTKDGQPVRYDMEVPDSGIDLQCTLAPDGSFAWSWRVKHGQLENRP

Test [1] has as its target NIK-T7 (Homo sapiens (Human)) (UniProt Q99558). As to the kind of experiment: co-immunoprecipitation from 293 lysates, anti-T7 IP, anti-Myc blot.
A further test addresses T1, IKKα-T7 (murine) (UniProt Q60680).
T1 sequence (looked up): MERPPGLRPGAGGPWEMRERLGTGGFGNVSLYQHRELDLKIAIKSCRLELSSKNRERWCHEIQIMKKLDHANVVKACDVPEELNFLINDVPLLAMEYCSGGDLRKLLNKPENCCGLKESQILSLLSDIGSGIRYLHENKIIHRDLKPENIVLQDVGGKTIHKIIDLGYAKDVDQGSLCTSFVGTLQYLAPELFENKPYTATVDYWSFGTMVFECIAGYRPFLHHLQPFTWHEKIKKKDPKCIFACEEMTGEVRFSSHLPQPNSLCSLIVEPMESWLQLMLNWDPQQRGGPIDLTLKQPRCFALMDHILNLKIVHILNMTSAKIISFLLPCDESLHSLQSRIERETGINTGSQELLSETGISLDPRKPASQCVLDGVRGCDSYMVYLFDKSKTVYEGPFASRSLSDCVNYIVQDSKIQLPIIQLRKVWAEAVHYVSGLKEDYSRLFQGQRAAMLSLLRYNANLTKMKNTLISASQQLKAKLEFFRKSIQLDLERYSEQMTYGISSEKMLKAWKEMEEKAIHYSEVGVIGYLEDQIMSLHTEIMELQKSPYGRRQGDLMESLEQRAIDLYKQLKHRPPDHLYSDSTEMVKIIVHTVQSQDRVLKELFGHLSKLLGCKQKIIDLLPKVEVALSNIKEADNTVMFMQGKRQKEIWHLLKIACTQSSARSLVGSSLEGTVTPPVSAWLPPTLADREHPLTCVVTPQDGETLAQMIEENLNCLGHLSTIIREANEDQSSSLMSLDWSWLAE
The test is described as above.

Test [2] deals with T2, kinase-deficient IKKα (K44M) (UniProt Q60680).
T2 sequence (looked up): T1 sequence (looked up) with K44M
Description: IKKα immunoprecipitation with co-immunoprecipitated NIK, immunocomplex kinase reaction.

For test [3], the target named is T2, kinase-deficient IKKα (K44M). Description: co-immunoprecipitation with IKKα from transfected 293 cells (FIG. 4A).
The target is the same in test [4]. Description: co-immunoprecipitation with IKKα from transfected 293 cells.

Substitutions are numbered along the chain they refer to. These are yes or no findings as the source states them, for the method shown. In cells and extracts the contact can be indirect. Some entries that bind do so weakly or less than the wild type.

On to Myc-N1-624 (from UniProt Q99558 1-624), for which the binding result in test [1] was “binds”.

In the case of Myc-N1-578 (from UniProt Q99558 1-578), the binding result in test [1] is given as “binds”.

As to “Myc-N624-947 (from UniProt Q99558 624-947)”, the binding entry (in test [1]; with IKKα-T7 (murine)) was “binds” throughout.

With Myc-N1-366 (from UniProt Q99558 1-366), in test [1], the binding result is recorded as “binds”.

For “NIK-T552A (from UniProt Q99558 1-947) (enzyme)”, in test [2], the binding entry is on record as “binds”.

As to “Myc-N570-947 (from UniProt Q99558 570-947)”, in the test with IKKα-T7 (murine), the binding result was “binds”.

Take “NIK-T559A (from UniProt Q99558 1-947) (enzyme)”: the binding result in test [3] and in test [4] was “binds” throughout.

With “Myc-NIK (from UniProt Q99558 1-947) (enzyme)”, the binding entry in test [2] is “binds”.

In the case of “NIK-S549A (from UniProt Q99558 1-947) (enzyme)”, the binding entry in test [2] is “binds”.
